The assay has as its target T1, FLAG-SHP fusion protein (small heterodimer partner, Nr0b2) (UniProt Q15466).
T1 sequence: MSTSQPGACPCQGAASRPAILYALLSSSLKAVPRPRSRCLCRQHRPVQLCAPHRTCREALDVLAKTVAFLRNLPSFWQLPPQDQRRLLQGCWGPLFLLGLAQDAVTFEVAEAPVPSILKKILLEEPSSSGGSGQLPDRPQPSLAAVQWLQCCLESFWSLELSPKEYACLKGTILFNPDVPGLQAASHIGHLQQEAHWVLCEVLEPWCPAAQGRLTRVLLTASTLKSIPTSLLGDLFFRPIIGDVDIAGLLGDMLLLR
Nature of the assay: co-IP; 1000 μg whole protein lysate of PMSCV-SHP (FLAG-SHP) or control PMSCV RAW 264.7 cells incubated with anti-FLAG M2 magnetic beads; eluted in 2× SDS loading buffer; Western blot. Background: Immunoblotting shows a protein as a band on a membrane.

Amino acid sequences for entries named in this document (tags omitted).
UniProt Q04207: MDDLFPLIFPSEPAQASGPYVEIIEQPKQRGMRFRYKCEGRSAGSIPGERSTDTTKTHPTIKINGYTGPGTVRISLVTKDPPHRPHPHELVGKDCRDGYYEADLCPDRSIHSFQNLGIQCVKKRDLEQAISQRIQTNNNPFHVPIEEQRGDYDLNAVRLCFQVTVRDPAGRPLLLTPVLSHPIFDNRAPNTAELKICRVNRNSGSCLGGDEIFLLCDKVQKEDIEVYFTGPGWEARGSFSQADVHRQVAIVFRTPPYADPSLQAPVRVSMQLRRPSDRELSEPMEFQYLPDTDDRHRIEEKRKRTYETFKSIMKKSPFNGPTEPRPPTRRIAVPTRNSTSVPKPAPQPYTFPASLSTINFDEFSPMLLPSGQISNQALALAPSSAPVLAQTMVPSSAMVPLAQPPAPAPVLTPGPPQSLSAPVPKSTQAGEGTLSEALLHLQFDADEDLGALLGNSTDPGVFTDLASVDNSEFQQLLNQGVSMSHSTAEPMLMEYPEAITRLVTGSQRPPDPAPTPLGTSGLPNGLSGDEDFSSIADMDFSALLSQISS

These are yes or no findings as the source states them, for the method shown. Binding seen in cells or lysates may run through a third protein. Some binding calls cover weakened binding; strength is not graded here. Sequences can lack the tags named with a protein.

In the case of NF-κB p65 (from UniProt Q04207 1-549), the binding result is “binds”.
